Test results published in PubChem BioAssay AID504467 (National Center for Advancing Translational Sciences (NCATS), 2011).
The campaign covered roughly 330,000 compounds. About 7,700 (2.3%) were called active. Inconclusive results, whose numbers are uncertain, are shown with a selection of clear calls. Calls come from the whole dose curve; as a rule, active = well fitted inhibition curve with a large enough effect; inconclusive = small, poorly fitted or top-dose-only effect, or effect the other way; inactive = flat fitted curve, though single readings scatter. Where the call is inconclusive, the potency comes from a doubtful curve fit.

Assay: qHTS screen for small molecules that inhibit ELG1-dependent DNA repair in human embryonic kidney (HEK293T) cells expressing luciferase-tagged ELG1; note: nearly all actives have a fitted effect of over 55% in size
Settings: HEK293T ELG1-luciferase reporter, luminescence, 16 h, DNA damage induced by 5-fluorouridine; series mostly up to 46.1 µM
Outline: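 Reporter activity after DNA damage by 5-fluorouridine is monitored. Compound-treated cells incubate 16 hr at 37 °C, then ONE-Glo is added for 30 min before luminescence reading.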
Potency is the fitted concentration of half-maximal effect.

SMILES	Potency
Cc1nc2ccccc2c(=O)n1NC(=O)c1ccc(C(C)(C)C)cc1	inconclusive: 20.6 µM [inhibitor, partial curve]
COc1ccc(CNC(=O)C(=O)NCC2OCCN2S(=O)(=O)c2cccs2)cc1 (centres undefined)	inactive
CC(=O)c1c(C)nc(-c2ccc(Cl)cc2)nc1N=CN(C)C	inconclusive: 5.17 µM [activator, partial curve]
COc1ccc(-n2cc3ccc([N+](=O)[O-])cc3n2)cc1	inconclusive: 2.91 µM [activator, partial curve]
CN(c1ccccc1)S(=O)(=O)c1cccc(NC(=O)CN2CCCc3ccccc32)c1	inconclusive: 18.3 µM [inhibitor, partial curve, poor fit]
Cc1cc(C)n(S(=O)(=O)c2ccc(C)c(C)c2)n1	inactive
CCN(CC(=O)Nc1ccc(NC(C)=O)cc1)C(=O)/C=C/c1c(C)nn(-c2ccc(F)cc2)c1Cl	active: 5.8 µM
COc1cc2ccccc2c2c1CCCC2=O	inconclusive: 16.4 µM [activator, single point]
CCOC(=O)c1c(C)[nH]c(C(=O)OCc2ccccc2)c1C	inconclusive: 3.66 µM [activator, full curve]
Cc1sc(NC(=O)c2cccs2)c(C(N)=O)c1C	inconclusive: 11.6 µM [activator, partial curve]
CC(C)Oc1ccc(CNC(=O)Cn2c(=O)c3cccn3c3cccnc32)cc1	inactive
Cc1ccccc1NC(=O)/C(C#N)=C\c1cc(C)n(-c2ccc(C(=O)O)cc2)c1C	inactive
O=C(c1ccc[nH]1)N1O[C@@H]2C=C[C@H]1C2	inactive
c1ccc2[nH]c(C3CC3)nc2c1	inconclusive: 18.3 µM [inhibitor, single point]
CCOC(=O)c1c(C)n(CC(O)c2ccccc2)c2ccc(O)cc12 (centres undefined)	inconclusive: 16.4 µM [inhibitor, single point]
CCOC(=O)c1ccc(-n2c(CC)nc3ccccc3c2=O)cc1	inconclusive: 29.1 µM [inhibitor, single point]
Cc1onc(-c2ccccc2)c1C(=O)N/N=C/c1cc2c(cc1Cl)OCO2	inconclusive: 18.4 µM [inhibitor, single point]
CCCn1c(NC(=O)C2CCN(C(=O)c3ccccc3C)CC2)nc2ccccc21	inactive
Oc1c(CN2CCOCC2)ccc2ccccc12	inactive
COc1cccc(N=c2oc3ccccc3cc2-c2nc3ccccc3[nH]2)c1	inconclusive: 5.17 µM [activator, single point]
Brc1ccc(-c2cn3cccnc3n2)cc1	inconclusive: 2.59 µM [activator, full curve]
CCOc1ccc(NCc2ccccc2OCc2cccc(F)c2)cc1	inconclusive: 18.4 µM [activator, partial curve, poor fit]
Cc1cc(NC(=O)CSc2nnc(-c3ccncc3)n2C)n(-c2ccccc2)n1	inactive
Cc1c(Cl)cc(-n2cnnn2)cc1[N+](=O)[O-]	inactive
O=C(Nc1ccn(Cc2ccccc2F)n1)c1ccc(COc2cc(Cl)ccc2Cl)o1	inconclusive: 6.51 µM [inhibitor, partial curve, poor fit]

SMILES	Potency
COC(CNC(=O)c1ccc2nc(-c3cccs3)c(-c3cccs3)nc2c1)OC	inconclusive: 23.1 µM [inhibitor, partial curve]
Cc1cccc2cc(-c3ccccc3)c(-c3ccccc3)c[n+]12	inactive
COc1cccc(O)c1CN1CCC(Oc2ccc(C(=O)NCc3ccccn3)cc2)CC1	inactive
COc1ccc(CCNC(=O)COc2ccc3c(C)cc(=O)oc3c2)cc1	inactive
CCc1ccccc1NC(=O)c1cc2ncc(Br)cn2n1	inconclusive: 5.17 µM [activator, single point]
C=CCN1C(=O)/C(=C2\SC(N3CCOCC3)=NC2=O)c2cc(Br)ccc21	inconclusive: 23.1 µM [inhibitor, single point]
Cc1cccc(-c2nsc(SCC(=O)c3ccc(Cl)cc3)n2)c1	inconclusive: 23.1 µM [activator, single point]
Cc1c(C(N)=O)sc2ncn(CC(=O)N3CCC(C)CC3)c(=O)c12	inactive
CCOC(=O)N1CCN(S(=O)(=O)c2ccc3c(c2)CCN3C(=O)C2CCC2)CC1	inactive
N#CCCN(C(=O)COC(=O)CCc1nc2ccccc2c(=O)[nH]1)c1ccc(F)cc1	inactive
O=C(CN1CCN(c2ccc(O)cc2)CC1)Nc1ccc(SC(F)F)cc1	active: 9.2 µM
CC(=O)Nc1ccc(C2=NN(Cc3nnc(-c4ccccc4)o3)C(=O)SC2)cc1	active: 16.4 µM
CCc1ccc(NC(=O)CN2C(=O)COc3ccc(S(=O)(=O)N4CCCC4)cc32)cc1	inactive
O=C(COc1ccc(Nc2ccccc2)cc1)Nc1ccncc1	active: 18.3 µM
COc1cc(NC(=S)N(C)C)c(OC)cc1Cl	inactive
CCOC(=O)C1(Cc2cccc(OC)c2)CCN(CCO)CC1	inactive
Cc1cc(=O)oc2cc(OCC(=O)NC3CCN(Cc4ccccc4)CC3)c(Cl)cc12	inconclusive: 32.6 µM [inhibitor, partial curve, poor fit]
O=C(c1c[nH]c2ccccc12)C(Cl)c1ccccc1 (centres undefined)	inconclusive: 29.1 µM [inhibitor, single point]
CN1CCN(c2nc(-c3cc4ccccc4o3)cs2)CC1	inconclusive: 14.6 µM [activator, partial curve]
COc1ccccc1N1CCN(/N=C/c2cc([N+](=O)[O-])ccc2Cl)CC1	inactive
CC(=O)NCCc1nc2cc(NC(=O)COc3cccc(C)c3)ccc2n1C	inconclusive: 20.6 µM [activator, partial curve, poor fit]
CCOc1ccccc1NC(=O)CSc1nccn1-c1ccccc1	inactive
O=C(N1CCOCC1)n1cnc2ccccc21	inconclusive: 32.6 µM [inhibitor, single point]
N#CC(C#N)=C1C=CC=CN1/C(=C\c1ccco1)C(=O)c1ccccc1	inconclusive: 29.1 µM [inhibitor, single point]

Exported with bars between the fields: part of the list above
SMILES | Potency
COc1cc2ccccc2c2c1CCCC2=O | inconclusive: 16.4 µM [activator, single point]
CCOC(=O)c1c(C)[nH]c(C(=O)OCc2ccccc2)c1C | inconclusive: 3.66 µM [activator, full curve]
Cc1sc(NC(=O)c2cccs2)c(C(N)=O)c1C | inconclusive: 11.6 µM [activator, partial curve]
CC(C)Oc1ccc(CNC(=O)Cn2c(=O)c3cccn3c3cccnc32)cc1 | inactive
Cc1ccccc1NC(=O)/C(C#N)=C\c1cc(C)n(-c2ccc(C(=O)O)cc2)c1C | inactive
O=C(c1ccc[nH]1)N1O[C@@H]2C=C[C@H]1C2 | inactive
c1ccc2[nH]c(C3CC3)nc2c1 | inconclusive: 18.3 µM [inhibitor, single point]
CCOC(=O)c1c(C)n(CC(O)c2ccccc2)c2ccc(O)cc12 (centres undefined) | inconclusive: 16.4 µM [inhibitor, single point]
CCOC(=O)c1ccc(-n2c(CC)nc3ccccc3c2=O)cc1 | inconclusive: 29.1 µM [inhibitor, single point]
